This note sets out measurements from PMC9873282, “Design, synthesis and evaluation of quinoline-O-carbamate derivatives as multifunctional agents for the treatment of Alzheimer’s disease” (Journal of Enzyme Inhibition and Medicinal Chemistry, 2023).

SMILES strings stand for the structures.

The assay has as its system AlCl3-induced zebrafish AD model. The assay is described as follows: Behavioural assay in AlCl3-induced zebrafish AD model. Format: in vivo.

Take `COc1cc2c(cc1OC)C(=O)C(CC1CCN(Cc3ccccc3)CC1)C2` (stereo not shown) [Donepezil, reference compound]: the distance moved is, setting by setting: (alternating dark light stimuli, 8 µM) 999.4 cm; (dark environment, 8 µM, model 447.4 cm, untreated 582.9 cm) 543.8 cm. Also, the velocity (alternating dark light stimuli, donepezil (8 µM)) turned out to be 16.7 cm/min and the velocity (dark environment, 8 µM, model 13.8 cm/min, untreated 19.1 cm/min) was 18.5 cm/min.
